Source: publication PMC8406302
No constants are given. Whether binding was seen depends on the method and setting. In cells and extracts the contact can be indirect. Some results given as binding are weak or reduced against the parent protein; the word gives no strength. Tags and fused reporters may be left off the sequences shown.

B1: dehydratase NisB (enzyme, UniProt P20103 1-993)
chain: MIKSSFKAQPFLVRNTILCPNDKRSFTEYTQVIETVSKNKVFLEQLLLANPKLYDVMQKYNAGLLKKKRVKKLFESIYKYYKRSYLRSTPFGLFSETSIGVFSKSSQYKLMGKTTKGIRLDTQWLIRLVHKMEVDFSKKLSFTRNNANYKFGDRVFQVYTINSSELEEVNIKYTNVYQIISEFCENDYQKYEDICETVTLCYGDEYRELSEQYLGSLIVNHYLISNLQKDLLSDFSWNTFLTKVEAIDEDKKYIIPLKKVQKFIQEYSEIEIGEGIEKLKEIYQEMSQILENDNYIQIDLISDSEINFDVKQKQQLEHLAEFLGNTTKSVRRTYLDDYKDKFIEKYGVDQEVQITELFDSTFGIGAPYNYNHPRNDFYESEPSTLYYSEEEREKYLSMYVEAVKNHNVINLDDLESHYQKMDLEKKSELQGLELFLNLAKEYEKDIFILGDIVGNNNLGGASGRFSALSPELTSYHRTIVDSVERENENKEITSCEIVFLPENIRHANVMHTSIMRRKVLPFFTSTSHNEVLLTNIYIGIDEKEKFYARDISTQEVLKFYITSMYNKTLFSNELRFLYEISLDDKFGNLPWELIYRDFDYIPRLVFDEIVISPAKWKIWGRDVNSKMTIRELIQSKEIPKEFYIVNGDNKVYLSQKNPLDMEILESAIKKSSKRKDFIELQEYFEDENIINKGEKGRVADVVVPFIRTRALGNEGRAFIREKRVSVERREKLPFNEWLYLKLYISINRQNEFLLSYLPDIQKIVANLGGNLFFLRYTDPKPHIRLRIKCSDLFLAYGSILEILKRSRKNRIMSTFDISIYDQEVERYGGFDTLELSEAIFCADSKIIPNLLTLIKDTNNDWKVDDVSILVNYLYLKCFFQNDNKKILNFLNLVSTKKVKENVNEKIEHYLKLLKVNNLGDQIFYDKNFKELKHAIKNLFLKMIAQDFELQKVYSIIDSIIHVHNNRLIGIERDKEKLIYYTLQRLFVSEEYMK
B2: cyclase NisC (enzyme, UniProt Q03202 1-418)
chain: MRIMMNKKNIKRNVEKIIAQWDERTRKNKENFDFGELTLSTGLPGIILMLAELKNKDNSKIYQKKIDNYIEYIVSKLSTYGLLTGSLYSGAAGIALSILHLREDDEKYKNLLDSLNRYIEYFVREKIEGFNLENITPPDYDVIEGLSGILSYLLLINDEQYDDLKILIINFLSNLTKENNGLISLYIKSENQMSQSESEMYPLGCLNMGLAHGLAGVGCILAYAHIKGYSNEASLSALQKIIFIYEKFELERKKQFLWKDGLVADELKKEKVIREASFIRDAWCYGGPGISLLYLYGGLALDNDYFVDKAEKILESAMQRKLGIDSYMICHGYSGLIEICSLFKRLLNTKKFDSYMEEFNVNSEQILEEYGDESGTGFLEGISGCILVLSKFEYSINFTYWRQALLLFDDFLKGGKRK

Target: T1, His-tagged ABC transporter NisT (Lactococcus lactis) (UniProt Q03203)
T1 sequence: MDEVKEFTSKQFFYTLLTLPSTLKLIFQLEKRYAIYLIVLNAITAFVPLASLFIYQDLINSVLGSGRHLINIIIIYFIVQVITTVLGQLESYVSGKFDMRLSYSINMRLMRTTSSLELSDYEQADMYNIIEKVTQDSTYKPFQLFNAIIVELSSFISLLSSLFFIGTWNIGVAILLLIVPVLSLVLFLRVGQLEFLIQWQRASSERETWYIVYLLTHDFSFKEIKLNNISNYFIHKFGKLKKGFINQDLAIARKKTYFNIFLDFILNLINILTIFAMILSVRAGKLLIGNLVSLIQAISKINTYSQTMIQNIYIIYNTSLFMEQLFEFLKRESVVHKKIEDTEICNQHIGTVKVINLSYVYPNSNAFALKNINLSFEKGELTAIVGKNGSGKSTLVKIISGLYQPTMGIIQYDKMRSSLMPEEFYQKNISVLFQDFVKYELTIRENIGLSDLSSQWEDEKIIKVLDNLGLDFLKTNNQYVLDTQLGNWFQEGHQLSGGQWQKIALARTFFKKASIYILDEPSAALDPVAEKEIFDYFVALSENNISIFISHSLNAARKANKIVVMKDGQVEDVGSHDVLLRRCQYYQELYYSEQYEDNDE
Experiment: pull-down; NisTHis held on Ni-NTA agarose from the membrane fraction solubilised with 1% DDM; 4°C; 50 mM NaH2PO4, 300 mM NaCl, pH 8.0, 0.1% DDM; wash 20 mM imidazole, elution 250 mM imidazole; elution 2 blotted with anti-His, anti-NisB and anti-NisC antibodies

Row | Binder | binding
1 | B1 | binds
2 | B2 | binds
